These are yes or no findings as the source states them, for the method shown. In cells and extracts the contact can be indirect. Some results given as binding are weak or reduced against the parent protein; the word gives no strength. For part of these data: Where a sequence is shown, tags or fusion partners need not be part of it.
Assays:
6xHis-tag PLCβ1 = target: T1, 6xHis-tag PLCβ1 (UniProt P10687); test: pull-down; nickel beads on cell lysate containing PLCβ-his and Gαq Q209L, with or without added HEK293 cell lysate expressing TRPM8, 4°C overnight; bound Gαq detected with anti-Gαq
T1 sequence: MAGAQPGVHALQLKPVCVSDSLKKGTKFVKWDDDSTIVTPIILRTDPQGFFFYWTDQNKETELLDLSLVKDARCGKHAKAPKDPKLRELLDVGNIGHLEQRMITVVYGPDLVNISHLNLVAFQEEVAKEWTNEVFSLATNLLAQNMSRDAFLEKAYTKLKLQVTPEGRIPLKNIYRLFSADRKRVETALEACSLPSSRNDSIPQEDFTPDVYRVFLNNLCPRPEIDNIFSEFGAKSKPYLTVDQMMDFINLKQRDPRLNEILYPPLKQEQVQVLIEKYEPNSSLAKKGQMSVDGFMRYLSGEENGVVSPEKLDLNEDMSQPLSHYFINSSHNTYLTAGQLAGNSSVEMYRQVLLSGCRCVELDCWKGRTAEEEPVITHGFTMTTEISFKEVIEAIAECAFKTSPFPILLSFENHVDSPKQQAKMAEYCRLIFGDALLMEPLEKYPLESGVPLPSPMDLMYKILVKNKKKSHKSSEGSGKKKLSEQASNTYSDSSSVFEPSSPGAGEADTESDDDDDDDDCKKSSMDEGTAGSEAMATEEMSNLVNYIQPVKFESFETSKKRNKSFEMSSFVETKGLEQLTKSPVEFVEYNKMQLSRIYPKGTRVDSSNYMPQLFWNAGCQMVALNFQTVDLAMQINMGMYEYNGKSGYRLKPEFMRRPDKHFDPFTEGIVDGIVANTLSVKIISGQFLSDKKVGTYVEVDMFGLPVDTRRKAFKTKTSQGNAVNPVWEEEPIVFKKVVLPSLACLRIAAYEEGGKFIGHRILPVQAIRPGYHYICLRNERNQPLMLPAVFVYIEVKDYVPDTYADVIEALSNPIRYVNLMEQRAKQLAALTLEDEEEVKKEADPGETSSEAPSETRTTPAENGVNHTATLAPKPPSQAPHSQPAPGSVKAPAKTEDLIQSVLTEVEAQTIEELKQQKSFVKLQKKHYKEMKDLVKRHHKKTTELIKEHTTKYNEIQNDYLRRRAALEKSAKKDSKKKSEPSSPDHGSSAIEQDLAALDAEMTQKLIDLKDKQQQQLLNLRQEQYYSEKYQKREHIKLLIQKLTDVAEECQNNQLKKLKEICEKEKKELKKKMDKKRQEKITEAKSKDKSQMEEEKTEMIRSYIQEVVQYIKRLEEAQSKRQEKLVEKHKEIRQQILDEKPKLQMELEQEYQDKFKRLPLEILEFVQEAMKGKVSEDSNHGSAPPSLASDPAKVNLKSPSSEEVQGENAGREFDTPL

Amino acid sequences for entries named in this document (tags omitted). A change or cut given only in a name is not applied to a line headed by its entry.
UniProt Q8R455: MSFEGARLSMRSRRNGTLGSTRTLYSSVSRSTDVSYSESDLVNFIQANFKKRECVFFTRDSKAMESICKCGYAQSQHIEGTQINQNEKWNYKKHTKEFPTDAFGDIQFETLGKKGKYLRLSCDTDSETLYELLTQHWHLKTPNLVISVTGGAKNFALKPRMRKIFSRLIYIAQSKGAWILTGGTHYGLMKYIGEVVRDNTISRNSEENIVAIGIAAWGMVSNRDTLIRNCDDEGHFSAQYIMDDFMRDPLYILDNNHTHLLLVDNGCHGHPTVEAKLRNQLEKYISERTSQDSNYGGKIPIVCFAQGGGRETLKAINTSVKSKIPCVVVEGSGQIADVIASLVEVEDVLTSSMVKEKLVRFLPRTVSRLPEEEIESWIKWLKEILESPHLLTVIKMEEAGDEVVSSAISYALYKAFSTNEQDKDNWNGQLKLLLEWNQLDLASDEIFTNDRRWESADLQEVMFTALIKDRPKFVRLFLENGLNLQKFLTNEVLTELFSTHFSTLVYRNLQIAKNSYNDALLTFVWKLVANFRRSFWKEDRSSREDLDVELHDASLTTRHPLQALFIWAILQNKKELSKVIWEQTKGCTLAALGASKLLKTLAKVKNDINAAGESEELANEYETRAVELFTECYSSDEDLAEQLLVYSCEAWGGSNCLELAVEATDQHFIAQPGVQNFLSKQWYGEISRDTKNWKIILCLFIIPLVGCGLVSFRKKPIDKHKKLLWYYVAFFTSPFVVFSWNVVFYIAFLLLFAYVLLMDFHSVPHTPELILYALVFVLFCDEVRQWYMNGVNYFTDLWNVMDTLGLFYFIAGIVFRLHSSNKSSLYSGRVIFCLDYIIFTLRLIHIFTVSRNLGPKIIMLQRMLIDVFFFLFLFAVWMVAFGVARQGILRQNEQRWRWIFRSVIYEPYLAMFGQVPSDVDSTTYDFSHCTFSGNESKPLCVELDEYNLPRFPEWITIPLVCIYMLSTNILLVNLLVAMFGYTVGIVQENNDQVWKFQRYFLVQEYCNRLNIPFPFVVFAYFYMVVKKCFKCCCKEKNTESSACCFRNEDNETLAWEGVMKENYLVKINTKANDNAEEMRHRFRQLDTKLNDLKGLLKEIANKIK
UniProt P50148: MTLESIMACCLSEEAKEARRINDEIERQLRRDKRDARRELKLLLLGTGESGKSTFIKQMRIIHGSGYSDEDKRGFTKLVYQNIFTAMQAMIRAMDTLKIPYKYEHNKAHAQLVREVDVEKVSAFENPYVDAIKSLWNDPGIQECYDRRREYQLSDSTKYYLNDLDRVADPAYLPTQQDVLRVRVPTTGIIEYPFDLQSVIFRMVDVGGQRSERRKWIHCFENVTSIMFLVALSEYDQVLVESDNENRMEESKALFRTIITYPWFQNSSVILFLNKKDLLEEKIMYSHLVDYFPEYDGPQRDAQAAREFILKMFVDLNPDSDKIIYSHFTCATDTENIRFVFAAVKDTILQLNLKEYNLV
UniProt P35367: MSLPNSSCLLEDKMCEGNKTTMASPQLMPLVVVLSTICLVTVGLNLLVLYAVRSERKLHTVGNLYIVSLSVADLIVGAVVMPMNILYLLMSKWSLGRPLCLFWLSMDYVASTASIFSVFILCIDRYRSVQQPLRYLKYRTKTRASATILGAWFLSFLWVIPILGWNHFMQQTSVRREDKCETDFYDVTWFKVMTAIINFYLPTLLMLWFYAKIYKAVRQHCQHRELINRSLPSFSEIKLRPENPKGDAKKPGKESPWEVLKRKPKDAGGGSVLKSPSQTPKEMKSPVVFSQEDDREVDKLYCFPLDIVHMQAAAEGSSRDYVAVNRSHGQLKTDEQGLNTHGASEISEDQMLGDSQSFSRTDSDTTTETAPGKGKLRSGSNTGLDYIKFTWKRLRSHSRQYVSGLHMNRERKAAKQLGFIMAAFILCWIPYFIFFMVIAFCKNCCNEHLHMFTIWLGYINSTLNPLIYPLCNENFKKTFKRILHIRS

Rat TRPM8-V5-His (rat) = Rat TRPM8-V5-His (rat) (UniProt Q8R455); test: pull-down; nickel beads (Ni-NTA) on lysate of HEK293 cells expressing TRPM8-V5-His with HA-B2R or HA-H1R; 20mM Tris-HCl pH7.4, 300mM NaCl, 1% NP-40, 10% glycerol, 0.2mM EDTA, 20mM imidazole, 4°C overnight; blot with anti-HA and anti-V5
Gαq Q209L = Gαq Q209L (UniProt P50148); test: pull-down; nickel beads on cell lysate containing PLCβ-his and Gαq Q209L, with or without added HEK293 cell lysate expressing TRPM8, 4°C overnight; bound Gαq detected with anti-Gαq

Gαq Q209L (from UniProt P50148 1-359)
binding (6xHis-tag PLCβ1): binds

HA-H1R (histamine receptor H1R) (from UniProt P35367 1-487)
binding (Rat TRPM8-V5-His (rat)): no binding

Rat TRPM8-V5-His (from UniProt Q8R455 1-1104)
binding (Gαq Q209L): binds

— article PMC6595177
